{"source": "patent EP0584588A1", "about": "“Anti-ulcer composition containing imidazole derivative” (NIPPON CHEMIPHAR CO., LTD., priority 1992, dated 1994)", "test_system": "HCl-ethanol erosion", "assay": "HCl-ethanol erosion model (cytoprotective action on gastrointestinal tract)", "assay_type": "in vivo, SD rats", "settings": "oral, at a dose of more than 30 mg/kg", "protocol": "To a mixture of 2-[(2-Isobutylamino)benzylthio]imidazole (1 g) obtained in (i) above, chloroform (40 ml), and methanol (10 ml) was portionwise added under chilling with ice, m-chloroperbenzoic acid (equivalent molar amount). After completion of the reaction was confirmed using TLC, the reaction mixture was made alkaline by addition of saturated aqueous sodium hydrogen carbonate and extracted with chloroform. The chloroform portion was then treated successively with three portions of 10 ml of 0.1 N aqueous NaOH and one portion of 20 ml of 0.1 N aqueous NaOH to transfer the desired product into the aqueous portions. The obtained four aqueous portions were separately made ammonia-alkaline by addition of 20% aqueous […]. The precipitated crystals were collected, washed sufficiently with ether, and dried to give 0.6 g (yield: 56.5%) of the desired product as a white crystalline powder. […]\nSD rats were fested for 24 hours. […] Length (mm) of each erosion was measured, and the total length (mm) of the erosions observed in one rat was calculated. […]", "note": "At least one structure is not confirmed: it was looked up by name or label, or the drawing left a doubt.", "data": [{"molecule": "CC(C)CNc1ccccc1C[S+]([O-])c1ncc[nH]1", "note": "(stereo not shown) [Imidazole derivative A, 2-[(2-Isobutylamino)benzylsulfinyl]imidazole]", "values": [{"measurement": "suppression of HCl-ethanol erosion", "result": "significant suppression"}]}]}
